The results in this text go back to the supplement of paper PMC7666118.

Amino acid sequences for entries named in this document (tags omitted). A change or cut given only in a name is not applied to a line headed by its entry.
UniProt Q9BUL5: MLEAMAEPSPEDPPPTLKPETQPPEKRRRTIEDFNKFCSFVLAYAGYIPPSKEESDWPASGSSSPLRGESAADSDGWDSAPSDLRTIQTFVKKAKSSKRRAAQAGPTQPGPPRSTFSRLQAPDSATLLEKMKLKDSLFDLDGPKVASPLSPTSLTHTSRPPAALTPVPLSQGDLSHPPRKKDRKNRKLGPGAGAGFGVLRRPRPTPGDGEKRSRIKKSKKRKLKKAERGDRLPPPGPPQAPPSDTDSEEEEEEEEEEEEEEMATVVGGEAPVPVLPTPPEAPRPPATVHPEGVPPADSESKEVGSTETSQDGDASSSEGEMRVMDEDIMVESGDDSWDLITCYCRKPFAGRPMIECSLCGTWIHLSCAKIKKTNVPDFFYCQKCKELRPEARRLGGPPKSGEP
UniProt O15162: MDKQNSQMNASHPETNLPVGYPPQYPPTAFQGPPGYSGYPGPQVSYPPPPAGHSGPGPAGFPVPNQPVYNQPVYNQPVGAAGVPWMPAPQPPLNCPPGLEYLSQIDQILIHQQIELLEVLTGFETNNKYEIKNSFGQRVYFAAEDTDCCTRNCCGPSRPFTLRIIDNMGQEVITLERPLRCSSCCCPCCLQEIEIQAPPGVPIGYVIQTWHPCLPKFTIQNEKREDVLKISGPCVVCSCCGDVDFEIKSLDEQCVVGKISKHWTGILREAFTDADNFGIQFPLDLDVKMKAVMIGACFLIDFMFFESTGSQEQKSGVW
UniProt Q99640: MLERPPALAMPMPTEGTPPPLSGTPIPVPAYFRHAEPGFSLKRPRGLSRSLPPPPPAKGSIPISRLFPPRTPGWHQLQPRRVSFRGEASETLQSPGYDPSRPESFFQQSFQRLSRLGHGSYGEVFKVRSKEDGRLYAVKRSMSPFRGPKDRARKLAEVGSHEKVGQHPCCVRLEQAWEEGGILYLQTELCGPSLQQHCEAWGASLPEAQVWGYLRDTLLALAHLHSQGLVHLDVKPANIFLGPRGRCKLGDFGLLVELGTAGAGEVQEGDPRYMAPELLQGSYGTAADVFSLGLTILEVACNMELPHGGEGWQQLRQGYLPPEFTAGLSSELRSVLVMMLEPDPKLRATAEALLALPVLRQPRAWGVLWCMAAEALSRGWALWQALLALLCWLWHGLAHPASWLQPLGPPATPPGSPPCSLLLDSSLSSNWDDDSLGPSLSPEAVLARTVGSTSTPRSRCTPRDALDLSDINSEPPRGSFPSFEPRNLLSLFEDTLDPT
UniProt P49005: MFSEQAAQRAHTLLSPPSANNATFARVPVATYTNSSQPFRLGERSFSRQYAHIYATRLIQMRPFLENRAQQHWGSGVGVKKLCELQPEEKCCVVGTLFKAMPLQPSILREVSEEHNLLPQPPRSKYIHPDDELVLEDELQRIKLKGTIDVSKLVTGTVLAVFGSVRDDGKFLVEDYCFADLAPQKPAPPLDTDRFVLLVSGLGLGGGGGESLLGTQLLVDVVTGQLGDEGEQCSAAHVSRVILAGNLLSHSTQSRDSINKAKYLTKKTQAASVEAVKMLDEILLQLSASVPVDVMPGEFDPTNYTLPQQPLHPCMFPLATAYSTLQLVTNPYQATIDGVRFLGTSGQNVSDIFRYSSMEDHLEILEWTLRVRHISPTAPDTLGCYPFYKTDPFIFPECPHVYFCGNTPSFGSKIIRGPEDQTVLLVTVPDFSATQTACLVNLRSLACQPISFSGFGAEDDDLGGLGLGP
UniProt Q05655: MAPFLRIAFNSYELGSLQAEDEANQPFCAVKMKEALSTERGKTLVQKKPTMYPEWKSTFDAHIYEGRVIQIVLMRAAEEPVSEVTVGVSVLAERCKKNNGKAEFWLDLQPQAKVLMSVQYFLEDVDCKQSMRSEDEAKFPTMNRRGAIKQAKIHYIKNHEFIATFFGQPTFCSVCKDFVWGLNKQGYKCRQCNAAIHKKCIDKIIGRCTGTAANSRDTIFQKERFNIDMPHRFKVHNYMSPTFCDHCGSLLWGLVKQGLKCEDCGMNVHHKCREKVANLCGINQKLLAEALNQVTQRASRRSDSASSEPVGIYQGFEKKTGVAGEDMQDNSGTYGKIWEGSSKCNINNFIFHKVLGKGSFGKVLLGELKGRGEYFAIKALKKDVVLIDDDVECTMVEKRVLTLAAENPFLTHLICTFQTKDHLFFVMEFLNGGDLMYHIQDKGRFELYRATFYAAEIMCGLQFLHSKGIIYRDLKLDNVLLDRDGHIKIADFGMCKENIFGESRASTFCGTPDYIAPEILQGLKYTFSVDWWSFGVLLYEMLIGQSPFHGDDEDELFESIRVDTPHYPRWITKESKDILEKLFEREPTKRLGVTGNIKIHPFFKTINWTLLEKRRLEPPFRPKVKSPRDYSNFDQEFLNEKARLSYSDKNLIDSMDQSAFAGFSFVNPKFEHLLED
UniProt Q9H875: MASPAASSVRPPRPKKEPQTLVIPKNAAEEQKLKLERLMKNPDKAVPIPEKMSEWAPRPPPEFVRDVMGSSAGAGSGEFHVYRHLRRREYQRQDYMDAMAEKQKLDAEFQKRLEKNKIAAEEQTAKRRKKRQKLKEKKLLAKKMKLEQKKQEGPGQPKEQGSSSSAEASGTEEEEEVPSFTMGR
UniProt Q13393: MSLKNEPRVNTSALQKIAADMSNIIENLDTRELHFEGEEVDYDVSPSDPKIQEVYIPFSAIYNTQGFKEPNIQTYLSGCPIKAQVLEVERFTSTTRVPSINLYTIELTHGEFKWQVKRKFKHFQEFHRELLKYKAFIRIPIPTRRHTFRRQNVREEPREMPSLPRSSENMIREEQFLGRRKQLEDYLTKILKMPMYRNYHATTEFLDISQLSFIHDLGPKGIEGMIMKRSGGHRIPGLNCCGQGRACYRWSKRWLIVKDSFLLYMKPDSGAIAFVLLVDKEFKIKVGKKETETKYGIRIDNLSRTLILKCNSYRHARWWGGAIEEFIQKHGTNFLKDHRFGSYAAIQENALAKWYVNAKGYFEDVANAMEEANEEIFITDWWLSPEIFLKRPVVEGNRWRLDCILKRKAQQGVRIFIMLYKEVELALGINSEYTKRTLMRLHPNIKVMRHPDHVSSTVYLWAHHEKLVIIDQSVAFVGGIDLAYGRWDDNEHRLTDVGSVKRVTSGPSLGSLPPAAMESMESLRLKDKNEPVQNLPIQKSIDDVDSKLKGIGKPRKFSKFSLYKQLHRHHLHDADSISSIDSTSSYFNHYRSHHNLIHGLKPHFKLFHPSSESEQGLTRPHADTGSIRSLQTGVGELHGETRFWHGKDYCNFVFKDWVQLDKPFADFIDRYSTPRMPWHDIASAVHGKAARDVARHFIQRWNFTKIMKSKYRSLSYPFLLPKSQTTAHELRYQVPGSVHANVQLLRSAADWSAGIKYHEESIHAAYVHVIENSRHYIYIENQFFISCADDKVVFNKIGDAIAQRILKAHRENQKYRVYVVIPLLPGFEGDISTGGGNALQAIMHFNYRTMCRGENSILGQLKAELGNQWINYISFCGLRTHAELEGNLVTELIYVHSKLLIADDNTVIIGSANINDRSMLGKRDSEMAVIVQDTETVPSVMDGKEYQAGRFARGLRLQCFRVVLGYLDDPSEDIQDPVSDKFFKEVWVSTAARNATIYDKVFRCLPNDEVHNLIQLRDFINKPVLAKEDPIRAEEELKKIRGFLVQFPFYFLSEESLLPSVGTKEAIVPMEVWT
UniProt Q9NP80: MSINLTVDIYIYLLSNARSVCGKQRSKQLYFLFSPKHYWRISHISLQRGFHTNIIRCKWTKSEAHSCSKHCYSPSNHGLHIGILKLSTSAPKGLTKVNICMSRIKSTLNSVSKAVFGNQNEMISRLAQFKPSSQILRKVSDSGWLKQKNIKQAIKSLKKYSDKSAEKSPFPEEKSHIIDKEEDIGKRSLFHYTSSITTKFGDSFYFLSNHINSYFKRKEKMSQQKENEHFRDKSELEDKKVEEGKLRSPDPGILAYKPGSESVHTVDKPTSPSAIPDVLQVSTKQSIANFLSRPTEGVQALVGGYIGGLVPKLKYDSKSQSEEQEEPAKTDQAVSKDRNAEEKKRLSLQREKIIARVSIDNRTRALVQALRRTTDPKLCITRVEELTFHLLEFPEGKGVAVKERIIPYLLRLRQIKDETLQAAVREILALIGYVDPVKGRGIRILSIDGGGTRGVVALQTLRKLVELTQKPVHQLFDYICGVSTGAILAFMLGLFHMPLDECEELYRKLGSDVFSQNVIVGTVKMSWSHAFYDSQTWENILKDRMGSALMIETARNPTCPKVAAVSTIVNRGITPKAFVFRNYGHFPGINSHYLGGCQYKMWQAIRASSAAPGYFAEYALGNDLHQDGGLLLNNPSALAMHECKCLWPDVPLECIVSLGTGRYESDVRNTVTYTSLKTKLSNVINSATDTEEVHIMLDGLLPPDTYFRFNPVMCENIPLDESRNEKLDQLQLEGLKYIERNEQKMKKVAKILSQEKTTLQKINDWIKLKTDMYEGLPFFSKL
UniProt Q96S52: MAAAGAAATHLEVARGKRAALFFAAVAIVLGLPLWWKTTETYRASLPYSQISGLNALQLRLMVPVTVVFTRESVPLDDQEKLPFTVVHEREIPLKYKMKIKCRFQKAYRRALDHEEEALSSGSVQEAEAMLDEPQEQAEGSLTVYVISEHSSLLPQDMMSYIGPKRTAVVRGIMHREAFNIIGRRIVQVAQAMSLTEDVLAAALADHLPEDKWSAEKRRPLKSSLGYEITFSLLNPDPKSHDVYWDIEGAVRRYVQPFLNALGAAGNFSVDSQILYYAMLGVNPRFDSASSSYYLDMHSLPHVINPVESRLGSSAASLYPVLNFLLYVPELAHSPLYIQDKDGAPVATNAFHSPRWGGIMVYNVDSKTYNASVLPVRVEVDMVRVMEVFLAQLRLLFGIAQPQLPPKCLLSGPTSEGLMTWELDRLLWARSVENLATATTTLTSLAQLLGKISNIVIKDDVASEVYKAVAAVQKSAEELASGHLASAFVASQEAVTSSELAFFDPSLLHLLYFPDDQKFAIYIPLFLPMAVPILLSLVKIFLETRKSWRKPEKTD
UniProt Q9H8W4: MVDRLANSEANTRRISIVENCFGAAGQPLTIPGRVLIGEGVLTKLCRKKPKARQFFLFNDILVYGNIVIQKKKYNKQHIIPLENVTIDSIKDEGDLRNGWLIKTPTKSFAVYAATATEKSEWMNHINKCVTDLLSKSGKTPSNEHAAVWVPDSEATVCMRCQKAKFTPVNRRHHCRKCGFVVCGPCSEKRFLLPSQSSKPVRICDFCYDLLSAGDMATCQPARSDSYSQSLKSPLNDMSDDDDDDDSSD
UniProt P19174: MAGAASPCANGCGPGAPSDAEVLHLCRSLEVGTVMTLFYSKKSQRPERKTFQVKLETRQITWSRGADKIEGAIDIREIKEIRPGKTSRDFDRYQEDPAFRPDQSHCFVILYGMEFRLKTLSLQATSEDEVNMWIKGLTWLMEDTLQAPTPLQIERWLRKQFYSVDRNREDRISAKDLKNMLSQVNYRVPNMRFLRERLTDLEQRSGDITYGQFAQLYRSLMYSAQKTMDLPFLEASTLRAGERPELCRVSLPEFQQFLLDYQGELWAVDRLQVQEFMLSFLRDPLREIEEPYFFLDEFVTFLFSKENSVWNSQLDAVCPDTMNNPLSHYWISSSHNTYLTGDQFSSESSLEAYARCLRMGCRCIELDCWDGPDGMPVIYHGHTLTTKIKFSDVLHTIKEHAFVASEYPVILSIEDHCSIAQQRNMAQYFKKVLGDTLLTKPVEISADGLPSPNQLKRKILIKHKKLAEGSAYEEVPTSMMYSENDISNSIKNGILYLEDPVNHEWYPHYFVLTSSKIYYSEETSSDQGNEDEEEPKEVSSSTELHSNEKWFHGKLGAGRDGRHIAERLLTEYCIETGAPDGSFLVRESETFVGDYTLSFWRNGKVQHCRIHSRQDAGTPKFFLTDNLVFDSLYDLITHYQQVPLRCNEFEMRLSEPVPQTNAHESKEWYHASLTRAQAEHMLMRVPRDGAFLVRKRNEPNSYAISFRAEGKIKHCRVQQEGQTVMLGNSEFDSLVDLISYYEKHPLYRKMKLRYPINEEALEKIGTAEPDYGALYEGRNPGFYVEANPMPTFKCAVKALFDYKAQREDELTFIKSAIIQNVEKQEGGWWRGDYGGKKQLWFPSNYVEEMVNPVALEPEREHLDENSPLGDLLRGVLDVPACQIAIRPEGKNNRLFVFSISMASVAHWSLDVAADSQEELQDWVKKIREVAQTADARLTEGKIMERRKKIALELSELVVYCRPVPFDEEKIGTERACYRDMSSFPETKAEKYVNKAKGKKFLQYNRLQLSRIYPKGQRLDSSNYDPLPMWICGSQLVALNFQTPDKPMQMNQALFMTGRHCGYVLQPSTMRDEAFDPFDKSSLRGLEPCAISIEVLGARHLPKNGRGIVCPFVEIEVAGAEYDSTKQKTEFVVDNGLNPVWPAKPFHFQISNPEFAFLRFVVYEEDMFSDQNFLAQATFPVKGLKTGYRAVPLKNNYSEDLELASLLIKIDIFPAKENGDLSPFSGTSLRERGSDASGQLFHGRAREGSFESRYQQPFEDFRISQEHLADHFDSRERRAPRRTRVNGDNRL

The other results are listed elsewhere or left out.

Compound in this test: COc1ccc(Cn2ccc3ccc(C(=O)NO)cc32)cc1
Kind of test: dose-dependent thermal stabilisation call (2D-TPP, DLPTP, 10% FDR) (binary (1 = stabilised)); higher = stabilised by the compound. The conditions noted are these: system: HL-60 intact cells; concentration range 0.04-10 µM.
In the case of PHF23 (UniProt Q9BUL5), the “dose-dependent thermal stabilisation call” value was inactive: 0.

With POLA2 (UniProt Q14181), the “dose-dependent thermal stabilisation call” value is inactive: 0.

Consider PPAT (UniProt Q06203), for which the “dose-dependent thermal stabilisation call” value is inactive: 0.

In the case of PLSCR1 (UniProt O15162), the “dose-dependent thermal stabilisation call” value was inactive: 0.

Regarding PNPLA4 (UniProt P41247), the “dose-dependent thermal stabilisation call” value was inactive: 0.

In the case of PRKACB (UniProt P22694), the “dose-dependent thermal stabilisation call” value was inactive: 0.

Take PPP1R13L (UniProt Q8WUF5): the “dose-dependent thermal stabilisation call” value is inactive: 0.

For PLAUR (UniProt Q03405), the “dose-dependent thermal stabilisation call” value is inactive: 0.

Regarding PITPNB (UniProt P48739), the “dose-dependent thermal stabilisation call” value is inactive: 0.

On to PKMYT1 (UniProt Q99640), for which the “dose-dependent thermal stabilisation call” value is inactive: 0.

For POLD2 (UniProt P49005), the “dose-dependent thermal stabilisation call” value is inactive: 0.

For PPP2R5E (UniProt Q16537), the “dose-dependent thermal stabilisation call” value is inactive: 0.

Consider PRKCD (UniProt Q05655), for which the “dose-dependent thermal stabilisation call” value is inactive: 0.

In the case of PPIL1 (UniProt Q9Y3C6), the “dose-dependent thermal stabilisation call” value is inactive: 0.

Take PRKRIP1 (UniProt Q9H875): the “dose-dependent thermal stabilisation call” value is inactive: 0.

In the case of PLD1 (UniProt Q13393), the “dose-dependent thermal stabilisation call” value is inactive: 0.

For PPA2 (UniProt Q9H2U2), the “dose-dependent thermal stabilisation call” value is inactive: 0.

Regarding PLEC1 (UniProt Q15149), the “dose-dependent thermal stabilisation call” value was inactive: 0.

As for PKP1 (UniProt Q13835), the “dose-dependent thermal stabilisation call” value is inactive: 0.

As for PRDX1 (UniProt Q06830), the “dose-dependent thermal stabilisation call” value is inactive: 0.

Consider PHF5A (UniProt Q7RTV0), for which the “dose-dependent thermal stabilisation call” value was inactive: 0.

Turning to PRDX3 (UniProt P30048), the “dose-dependent thermal stabilisation call” value is inactive: 0.

Take POLR1D: the “dose-dependent thermal stabilisation call” value was inactive: 0.

For PLXNB2 (UniProt O15031), the “dose-dependent thermal stabilisation call” value was inactive: 0.

For the target POP1 (UniProt Q99575), the “dose-dependent thermal stabilisation call” value was inactive: 0.

Turning to POLR3D (UniProt P05423), the “dose-dependent thermal stabilisation call” value is inactive: 0.

In the case of PPP2R3C (UniProt Q969Q6), the “dose-dependent thermal stabilisation call” value is inactive: 0.

As to PKP4 (UniProt Q99569), the “dose-dependent thermal stabilisation call” value is inactive: 0.

As to PNPLA8 (UniProt Q9NP80), the “dose-dependent thermal stabilisation call” value is inactive: 0.

In the case of PIGS (UniProt Q96S52), the “dose-dependent thermal stabilisation call” value was inactive: 0.

As for PRKAR1B (UniProt P31321), the “dose-dependent thermal stabilisation call” value is inactive: 0.

As to POLE (UniProt Q07864), the “dose-dependent thermal stabilisation call” value was inactive: 0.

On to PORCN (UniProt Q9H237), for which the “dose-dependent thermal stabilisation call” value is inactive: 0.

Turning to PGLS (UniProt O95336), the “dose-dependent thermal stabilisation call” value is inactive: 0.

As for PLEK (UniProt P08567), the “dose-dependent thermal stabilisation call” value was inactive: 0.

For the target PLEKHF2 (UniProt Q9H8W4), the “dose-dependent thermal stabilisation call” value was inactive: 0.

Turning to PMM2 (UniProt O15305), the “dose-dependent thermal stabilisation call” value is inactive: 0.

For PLCG1 (UniProt P19174), the “dose-dependent thermal stabilisation call” value is inactive: 0.
